Assay results: patent US20230146455A1 (Yuyu Pharma, Inc., priority 2020, published 2023)
Where “and” joins values, the source holds several entries; their conditions need not be identical. Equal entries are not always repeated. Where a SMILES comes first, the peptide text is derived from it. [ ]: non-standard residue; d: D form. Hyp = O=C(O)[C@@H]1C[C@@H](O)CN1

Test system: IL-10
Test: Example 9 Luminex, LPS hPBMCs: IL-10
Type: cell-based, human
Settings: Bead IL-10
Method: Treatment Human PBMCs were pretreated with YY-101, YDE-011 and YDE-043 or reference compound; Xiidra® at various concentration (ranging from 1 nM to 100 uM) for 2 h before stimulation. An equal volume of 0.5% DMSO was used as a vehicle control. Then, the cells were treated with LPS at 5 ug/ml. The supernatants from treated cells were harvested at 24 h and placed in a 96 well for Luminex cytokine & chemokine profiling using a Luminex 200 multiplex assay (Luminex; R&D system, USA).
The main study arm with triplicate wells per group in a 24-well plate: • 1. Blank • 2. PBMC: 0.5% DMSO • 3. PBMC+LPS (5 ug/ml) • 4. PBMC+YY-101 100 uM • 5. PBMC+YY-101 10 uM • 6. PBMC+YY-101 1 uM • 7. PBMC+YY-101 0.1 uM • 8. PBMC+YY-101 0.01 uM • 9. PBMC+LPS (5 ug/ml)+Xiidra®100 uM • 10. PBMC+LPS (5 ug/ml)+Xiidra® 10 uM • 11. PBMC+LPS (5 ug/ml)+Xiidra® 1 uM • 12. PBMC+LPS (5 ug/ml)+Xiidra®0.1 uM • 13. PBMC+LPS (5 ug/ml)+Xiidra®0.01 uM • 14. PBMC+LPS (5 ug/ml)+Xiidra®0.001 uM • 15. PBMC+LPS (5 ug/ml)+YY-101 100 uM • 16. PBMC+LPS (5 ug/ml)+YY-101 10 uM • 17. PBMC+LPS (5 ug/ml)+YY-101 1 uM • 18. PBMC+LPS (5 ug/ml)+YY-101 0.1 uM • 19. PBMC+LPS (5 ug/ml)+YY-101 0.01 uM • 20. PBMC+LPS (5 ug/ml)+YY-101 0.001 uM • 21. PBMC+LPS (5 ug/ml)+YDE-011 100 uM • 22. PBMC+LPS (5 ug/ml)+YDE-011 10 uM • 23. PBMC+LPS (5 ug/ml)+YDE-011 1 uM • 24. PBMC+LPS (5 ug/ml)+YDE-011 0.1 uM • 25. PBMC+LPS (5 ug/ml)+YDE-011 0.01 uM • 26. PBMC+LPS (5 ug/ml)+YDE-011 0.001 uM • 27. PBMC+LPS (5 ug/ml)+YDE-043 100 uM • 28. PBMC+LPS (5 ug/ml)+YDE-043 10 uM • 29. PBMC+LPS (5 ug/ml)+YDE-043 1 uM • 30. PBMC+LPS (5 ug/ml)+YDE-043 0.1 uM • 31. PBMC+LPS (5 ug/ml)+YDE-043 0.01 uM • 32. PBMC+LPS (5 ug/ml)+YDE-043 0.001 uM
Multiplex assay was used to measure 30 cytokines and chemokines. The 1:2, 1:10 and 1:200 diluted cell supernatant and serial dilution of the standard were dispensed into a 96 well plate at 50 ul/well. Then, the pre-mixed cocktail of antibody-coated magnetic beads was dispensed at 50 ul/well and incubated at room temperature for 2 h in a horizontal orbital microplate shaker at 800±500 rpm. The beads were washed using a magnetic device to prevent loss. The biotin-antibody was dispensed in 50 ul of each well and incubated at room temperature for 1 h in a shaker at 800±500 rpm. After washing, streptavidin-PE was added at 50 ul/well and incubated at room temperature for 30 min in a shaker under the same conditions. Finally, after washing, wash buffer (100 ul/well) was added to the plate and incubated in a shaker for 2 min. The Luminex™ 200 setting were set according to the manufacturer's protocol. The data was calculated with a standard five-parameter logistic nonlinear regression analysis of the data (xPonent software 4.2, USA). The levels of cytokine/chemokine are normalized to the live cell counts (1×10^5 cells/mL) and presented as concentrations per mL (pg/mL or ng/mL).

[1] = PBMC + LPS(5 ug/ml) + test article 0.001 uM, Mean
[2] = PBMC + LPS(5 ug/ml) + test article 0.001 uM, single replicates
[3] = PBMC + LPS(5 ug/ml) + test article 0.01 uM, Mean
[4] = PBMC + LPS(5 ug/ml) + test article 0.01 uM, single replicates
[5] = PBMC + LPS(5 ug/ml) + test article 0.1 uM, Mean
[6] = PBMC + LPS(5 ug/ml) + test article 0.1 uM, single replicates
[7] = PBMC + LPS(5 ug/ml) + test article 1 uM, Mean
[8] = PBMC + LPS(5 ug/ml) + test article 1 uM, single replicates
[9] = PBMC + LPS(5 ug/ml) + test article 10 uM, Mean
[10] = PBMC + LPS(5 ug/ml) + test article 10 uM, single replicates
[11] = PBMC + LPS(5 ug/ml) + test article 100 uM, Mean
[12] = PBMC + LPS(5 ug/ml) + test article 100 uM, single replicates

Structure (SMILES) | MFI [1] | MFI [2] | MFI [3] | MFI [4] | MFI [5] | MFI [6] | MFI [7] | MFI [8] | MFI [9] | MFI [10] | MFI [11] | MFI [12] | further results
CC(C)C[C@H](NC(=O)[C@H](CCC(N)=O)NC(=O)CNC(=O)[C@@H]1C[C@@H](O)CN1)C(=O)NCC(=O)O [YDE-043] (H-[Hyp]GQLG-OH; N-terminus and C-terminus assumed) | 173.4 | 194.3 and 168.3 and 157.8 | 200.8 | 200.8 and 213.3 and 188.3 | 184.9 | 190.3 and 178.3 and 186.3 | 188.6 | 189.3 and 178.3 and 198.3 | 167.9 | 182.3 and 153.8 and 167.8 | 49.3 | 47.8 and 50.8 | –
CC(C)C[C@H](NC(=O)CNC(=O)[C@H](CC(C)C)NC(=O)[C@H](CCC(N)=O)NC(=O)CNC(=O)[C@@H]1C[C@@H](O)CN1)C(=O)N[C@@H](C)C(=O)NCC(=O)N1CCC[C@H]1C(=O)N[C@@H](CCCCN)C(=O)O [YDE-011] (H-[Hyp]GQLGLAGPK-OH) | 172.1 | 163.3 and 179.3 and 173.8 | 181.9 | 192.8 and 186.8 and 166.3 | 175.6 | 168.8 and 181.8 and 176.3 | 179.6 | 179.3 and 182.8 and 176.8 | 169.9 | 168.8 and 166.3 and 174.8 | 50.4 | 43.8 and 51.8 and 55.8 | –
CC(C)C[C@H](NC(=O)CNC(=O)[C@H](CC(=O)O)NC(=O)[C@H](CCC(N)=O)NC(=O)CNC(=O)[C@@H]1C[C@@H](O)CN1)C(=O)N[C@@H](C)C(=O)NCC(=O)N1CCC[C@H]1C(=O)N[C@@H](CCCCN)C(=O)O [YY-101] (H-[Hyp]GQDGLAGPK-OH; N-terminus and C-terminus assumed) | 298.8 | 315.3 and 305.8 and 275.3 | 314.1 | 308.8 and 313.8 and 319.8 | 273.6 | 259.8 and 283.8 and 277.3 | 329.3 | 357.3 and 302.8 and 327.8 | 295.3 | 287.8 and 342.3 and 255.8 | 86.1 | 86.8 and 83.8 and 87.8 | MFI (PBMC + test article 0.01 uM, no LPS, Mean): 1.3; MFI (PBMC + test article 0.01 uM, no LPS, single replicates): 0.8 and 1.8; MFI (PBMC + test article 0.1 uM, no LPS, Mean): 1.3; MFI (PBMC + test article 0.1 uM, no LPS, single replicates): 0.8 and 1.8; MFI (PBMC + test article 1 uM, no LPS, Mean): 0.8; MFI (PBMC + test article 1 uM, no LPS, single replicates): 0.8; MFI (PBMC + test article 10 uM, no LPS, Mean): 4.5; MFI (PBMC + test article 10 uM, no LPS, single replicates): 7.8 and 1.3; MFI (PBMC + test article 100 uM, no LPS, Mean): 1.3; MFI (PBMC + test article 100 uM, no LPS, single replicates): 2.8 and −0.3
